Measured values taken from PubChem BioAssay AID2073 (Sanford-Burnham Center for Chemical Genomics, 2009).
In all, about 290,000 compounds went through this assay and about 570 (0.2%) were called active. The shares of active, inactive and inconclusive entries below differ from those in the screen. No stated cut-off is given here; in the data, active means inhibition mostly above about 51% (no sharp cut-off); inconclusive means no clear call, values can overlap the other calls; inactive means mostly below about 53%.

Amino acid sequences for entries named in this document (tags omitted).
UniProt Q00975, whole entry, looked up: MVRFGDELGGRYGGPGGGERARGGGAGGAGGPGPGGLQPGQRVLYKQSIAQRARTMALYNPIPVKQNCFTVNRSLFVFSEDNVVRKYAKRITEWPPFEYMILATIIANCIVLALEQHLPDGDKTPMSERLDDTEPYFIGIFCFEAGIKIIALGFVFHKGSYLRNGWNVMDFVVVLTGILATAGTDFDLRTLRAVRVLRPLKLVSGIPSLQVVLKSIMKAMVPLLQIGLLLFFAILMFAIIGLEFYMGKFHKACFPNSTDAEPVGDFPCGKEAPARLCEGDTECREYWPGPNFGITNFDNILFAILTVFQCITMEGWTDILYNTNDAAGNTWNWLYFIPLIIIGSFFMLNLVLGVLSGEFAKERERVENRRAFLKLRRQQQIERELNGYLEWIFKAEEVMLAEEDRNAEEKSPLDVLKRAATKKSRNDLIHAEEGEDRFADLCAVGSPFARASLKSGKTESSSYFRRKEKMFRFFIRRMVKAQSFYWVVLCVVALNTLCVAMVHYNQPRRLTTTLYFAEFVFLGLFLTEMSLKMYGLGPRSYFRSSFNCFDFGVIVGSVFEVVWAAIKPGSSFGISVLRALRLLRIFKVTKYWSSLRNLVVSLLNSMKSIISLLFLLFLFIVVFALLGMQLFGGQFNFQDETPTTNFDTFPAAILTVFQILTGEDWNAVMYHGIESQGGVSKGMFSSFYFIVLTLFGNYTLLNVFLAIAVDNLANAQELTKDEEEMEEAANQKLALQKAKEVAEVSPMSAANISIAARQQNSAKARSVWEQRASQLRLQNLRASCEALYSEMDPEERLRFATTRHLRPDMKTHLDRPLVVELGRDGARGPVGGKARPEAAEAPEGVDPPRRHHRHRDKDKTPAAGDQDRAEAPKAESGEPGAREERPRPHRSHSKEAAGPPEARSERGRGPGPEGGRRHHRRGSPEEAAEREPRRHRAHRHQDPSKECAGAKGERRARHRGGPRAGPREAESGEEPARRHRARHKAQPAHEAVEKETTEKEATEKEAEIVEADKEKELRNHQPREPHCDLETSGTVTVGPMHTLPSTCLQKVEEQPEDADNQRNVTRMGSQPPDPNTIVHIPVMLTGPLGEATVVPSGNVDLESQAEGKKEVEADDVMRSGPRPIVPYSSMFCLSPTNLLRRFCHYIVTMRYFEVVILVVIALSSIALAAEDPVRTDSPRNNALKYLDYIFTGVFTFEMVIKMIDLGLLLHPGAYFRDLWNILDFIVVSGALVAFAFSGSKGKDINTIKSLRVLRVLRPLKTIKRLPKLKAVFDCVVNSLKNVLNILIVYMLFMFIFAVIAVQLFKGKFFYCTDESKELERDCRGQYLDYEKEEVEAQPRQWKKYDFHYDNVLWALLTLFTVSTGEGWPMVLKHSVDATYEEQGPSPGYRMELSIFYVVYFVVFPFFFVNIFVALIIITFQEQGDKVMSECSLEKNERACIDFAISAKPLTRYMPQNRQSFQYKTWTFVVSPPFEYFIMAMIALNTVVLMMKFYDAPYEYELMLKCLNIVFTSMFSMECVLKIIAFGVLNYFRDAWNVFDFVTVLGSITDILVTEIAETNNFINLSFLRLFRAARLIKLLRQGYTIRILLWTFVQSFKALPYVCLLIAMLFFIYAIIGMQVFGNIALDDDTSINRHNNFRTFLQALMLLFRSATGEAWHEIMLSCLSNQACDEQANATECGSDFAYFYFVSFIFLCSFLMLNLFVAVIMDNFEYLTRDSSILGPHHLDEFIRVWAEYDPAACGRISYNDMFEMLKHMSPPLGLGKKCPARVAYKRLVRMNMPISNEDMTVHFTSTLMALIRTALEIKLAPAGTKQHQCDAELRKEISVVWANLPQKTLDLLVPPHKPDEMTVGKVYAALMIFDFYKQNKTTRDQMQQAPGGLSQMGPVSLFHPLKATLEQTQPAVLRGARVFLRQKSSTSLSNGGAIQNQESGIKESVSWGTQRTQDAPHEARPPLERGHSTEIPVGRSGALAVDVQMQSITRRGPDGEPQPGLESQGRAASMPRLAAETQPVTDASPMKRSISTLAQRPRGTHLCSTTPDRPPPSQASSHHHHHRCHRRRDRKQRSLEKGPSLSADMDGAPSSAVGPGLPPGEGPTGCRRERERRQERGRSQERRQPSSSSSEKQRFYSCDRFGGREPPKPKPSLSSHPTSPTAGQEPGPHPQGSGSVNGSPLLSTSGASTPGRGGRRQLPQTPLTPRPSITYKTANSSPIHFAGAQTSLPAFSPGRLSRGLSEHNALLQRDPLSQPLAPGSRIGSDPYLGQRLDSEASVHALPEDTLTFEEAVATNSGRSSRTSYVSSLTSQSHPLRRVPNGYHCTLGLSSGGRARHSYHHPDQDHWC

Each compound was assayed against Voltage-dependent N-type calcium channel subunit alpha-1B (Homo sapiens) (UniProt Q00975) (assay: disruptors of CaV2.2 binding to Mint1 – biochemical, HTRF (AID 2073)). Details: HTRF protein-protein interaction, Mint1-CaV2.2; at 20 µM; stronger effect = higher value.

Row | Compound | inhibition
1 | C(=Nc1cccc2c(N=Cc3ccco3)cccc12)c1ccco1 | inconclusive: 87.2%
2 | Cc1ccc2[nH]c(=O)c(C(c3nnnn3CC3CCCO3)N3CCCc4ccccc43)cc2c1 (configuration not stated) | inactive: 94.9%
3 | O=C(COc1ccc(Cl)cc1)Nc1nnc(C2=COCCO2)o1 | inconclusive: 68.8%
4 | O=c1cc(O)c2sc(Nc3ccc(Cl)c(F)c3)nc2[nH]1 | inactive: 66.1%
5 | O=C(COc1ccc(Cl)cc1Cl)OCC(=O)N1CCCc2ccccc21 | inconclusive: 52.4%
6 | Cc1cccc(N=C2NC(=O)/C(=C/C=C/c3ccco3)S2)c1 | inactive: 57.2%
7 | CC1CN(S(=O)(=O)c2cccc(C(=O)OC(C)C(=O)NC3CCCCC3C)c2)CC(C)O1 (configuration not stated) | inconclusive: 57.4%
8 | Cc1ccc(N2CCN(S(=O)(=O)c3ccc(F)c(C)c3)CC2)c(C)c1 | inconclusive: 91.1%
9 | CSc1nc(C)cc(-n2cc(F)c(=O)[nH]c2=O)n1 | inactive: -1.3%
10 | CCN(CC)C(=O)CN(c1ccc(C)cc1)S(=O)(=O)c1ccc(SC)cc1 | inconclusive: 61.1%
11 | Fc1ccc(Nc2nc3ccccc3s2)cc1 | inactive: 3.5%
12 | CCC(C)(C(=O)NC1CCCCC1)N(C(=O)c1ccccn1)c1ccc(C)cc1 (configuration not stated) | inconclusive: 67.6%
13 | CCOc1ccc(C(=O)Nc2ccc(NC(=O)c3ccco3)c(Cl)c2)cc1Br | inconclusive: 68.1%
14 | Cc1cc(/C=C2/SC(=O)N(CC(=O)OC(C)C)C2=O)c(C)n1C | inconclusive: 51.4%
15 | CC1CN(C(=O)CCCN2C(=O)c3ccccc3C2=O)CC(C)O1 (configuration not stated) | inactive: -7.3%
16 | COC(=O)c1cc(CNC(=O)c2ccccc2OCc2c(C)noc2C)ccc1OC | inconclusive: 60.4%
17 | O=C(c1cccs1)N1CCN(Cc2ccccn2)CC1 | inconclusive: 88.9%
18 | Fc1cccc(CSc2ncnc3c2oc2ccccc23)c1 | inconclusive: 74.4%
19 | CCCCCCc1c(C)nc(-n2[nH]c(C)c(CCO)c2=O)[nH]c1=O | inconclusive: 60.2%
20 | COC(=O)c1cc(Sc2cccc(Cl)c2Cl)ccn1 | inconclusive: 59%
21 | Cc1c(Cl)cccc1NC(=O)CCCN1C(=O)c2cccnc2C1=O | inactive: 3.3%
22 | COc1ccccc1CCC(=O)OCC(=O)NC1CCCCC1 | inconclusive: 83.7%
23 | CSc1ccccc1NC(=O)c1noc2c1CCC2 | inconclusive: 77%

Row | Compound | inhibition
24 | O=C(c1cccc([N+](=O)[O-])c1)c1cc2ccccc2o1 | inconclusive: 55.9%
25 | Cc1ccc(OCC(=O)NC(C)c2ccccc2)c([N+](=O)[O-])n1 (configuration not stated) | inconclusive: 50.1%
26 | O=C(Nc1ccc(S(=O)(=O)Nc2nccs2)cc1)c1ccc(F)cc1 | inactive: 11.1%
27 | CC1=CCC2C(=O)N(c3ccc(C)cc3)C(=O)C2C1 (configuration not stated) | inactive: 6.6%
28 | Cc1cc(C)nc(N/N=C/c2c(CO)cnc(C)c2O)n1 | inconclusive: 95.6%
29 | CCOC(=O)c1sc2nc(N3CCOCC3)c3c(c2c1N)CC(C)(C)N(C)C3 | inconclusive: 54.3%
30 | O=S(=O)(c1ccc(F)c(F)c1)N1CCCc2ccccc21 | inactive: -1.2%
31 | c1ccc(-c2nnc3sc(Cc4cccs4)nn23)cc1 | inconclusive: 86%
32 | O=C(N/N=C/c1ccc([N+](=O)[O-])cc1)c1cc(C2CC2)[nH]n1 | inactive: -0.6%
33 | CC1CC=C(c2ccccc2)C(=S)N1 (configuration not stated) | inconclusive: 60%
34 | Cn1c(=O)c2c(nc(CN3CCN(Cc4ccccc4)CC3)n2Cc2cccc(Cl)c2)n(C)c1=O | inconclusive: 51.5%
35 | O=c1oc(Nc2ccccc2F)nc2ccccc12 | inconclusive: 55.6%
36 | O=C(N/N=C/c1cccc([N+](=O)[O-])c1)C1CC(=O)N(c2ccc(Cl)cc2)C1 (configuration not stated) | inconclusive: 79.9%
37 | COc1ccc(-c2cc(C(=O)NC3CC3)c3ccccc3n2)cc1 | inconclusive: 50.7%
38 | CCOc1ccccc1OCc1nn2c(-c3ccc(C)cc3)nnc2s1 | inconclusive: 65.7%
39 | O=C1N/C(=C\c2ccc(O)cc2)C(=O)c2ccccc21 | inconclusive: 86%
40 | CC(C)CSC1=NSC2=NC(=O)/C(=C\c3coc4ccccc4c3=O)C(=N)N12 | inconclusive: 72.8%
41 | Cc1ccc(NC(=O)c2ccc3nsnc3c2)c(Cl)c1 | inconclusive: 67.5%
42 | Cc1nc(N2CCN(c3ccccn3)CC2)c2c(C)c(C(=O)Nc3ccc(F)cc3F)sc2n1 | inconclusive: 53.5%
43 | COc1cccc(NC(=S)N(Cc2ccccn2)Cc2ccccc2Cl)c1 | inconclusive: 62.2%
44 | O=C(c1ccco1)N1CCN(Cc2cccc3ccccc23)CC1 | inactive: 3.9%
45 | COc1ccc(-c2c(C(F)(F)F)[nH]n3c(=O)cc(-c4ccccc4)nc23)cc1 | inconclusive: 60.6%
46 | O=[N+]([O-])c1ccc(/C=N\NS(=O)(=O)c2ccc(F)cc2)o1 | inactive: -7%

Row | Compound | inhibition
47 | CCn1c(C)nc2cc(C(=O)N/N=C/c3ccc(O)c(O)c3O)ccc21 | inconclusive: 76.7%
48 | CCn1nc(C)c(CN2CCCC(CO)(Cc3cccc(Cl)c3)C2)c1C (configuration not stated) | inconclusive: 53.1%
49 | COc1ccc(-c2cc(C(=O)NCC3CCCO3)c3ccccc3n2)cc1 (configuration not stated) | inconclusive: 60.4%
50 | COc1ccccc1-c1coc2c(CN(C)C)c(O)ccc2c1=O | inconclusive: 55%
51 | O=C(COC(=O)c1ccc(F)cc1F)Nc1ncccn1 | inconclusive: 58.4%
52 | CC(C)c1ccc(OCC(O)CN2CCCC2)cc1 (configuration not stated) | inactive: -4.2%
53 | COc1ccc(/C=C/c2cc(C(F)(F)F)[nH]c(=O)n2)cc1OC | inconclusive: 83.1%
54 | CCOc1ccccc1C(=O)NC(C(=O)Nc1cccnc1)C(C)C (configuration not stated) | inactive: 3.3%
55 | CCCc1cc(=O)[nH]c(SCC(=O)N2CCC(C)CC2)n1 | inactive: 12%
56 | O=C(O)c1cc(-c2ccc(Cl)c(Cl)c2)n(-c2ccc(F)cc2)n1 | inconclusive: 66.3%
57 | COc1ccccc1NC(=O)CCSc1nc(C)cc(C)n1 | inconclusive: 59.8%
58 | O=C(c1ccccc1)[C@H]1CC=CC[C@H]1C(=O)O | inconclusive: 61.5%
59 | CC1Cc2ccccc2N1C(=O)COC(=O)c1ccc(Cl)nc1 (configuration not stated) | inconclusive: 54.4%
60 | O=C(Nc1c(Cl)cc(Cl)cc1-c1nc2ccccc2s1)c1ccc(Br)o1 | inconclusive: 64.2%
61 | S=C(Nc1ccccc1Cl)N1CCN(Cc2ccccc2)CC1 | inconclusive: 73.8%
62 | C/C(=N/NC(=O)c1cc(C)[nH]n1)c1ccco1 | inconclusive: 77.5%
63 | O=c1nc2c(O)cccn2c2c1c(=O)[nH]c1ccccc12 | active: 66.4%
64 | CCc1ccccc1N1CSC2=C(C#N)C(c3cc(OC)c(OC)cc3OC)CC(=O)N2C1 (configuration not stated) | inactive: 75.6%
65 | CCOC(=O)C1=C(CSc2nc(-c3ccccc3)ccc2C#N)OC(N)=C(C#N)C1c1ccccc1 (configuration not stated) | inconclusive: 57.4%
66 | COc1ccc(-c2c(C)c3cc(O)ccc3oc2=O)cc1OC | inconclusive: 50.7%
67 | O=C1/C(=C/c2ccccc2)SC(=S)N1N1C(=O)C2CC2C1=O (configuration not stated) | inconclusive: 61.2%
68 | CSc1cc(-c2ccc(Cl)cc2)n(Cc2ccccc2)c(=O)c1C#N | inconclusive: 51.5%
69 | CN1\C(=C/C=C/C=C/C=[N+](C)C)C(C)(C)c2ccccc21 | inconclusive: 59.9%

Row | Compound | inhibition
70 | COc1ccc(N/C(=N/c2nc(C)cc(C)n2)NC(=O)c2ccccc2)cc1 | inactive: 8.5%
71 | CCc1cc(=O)oc2c(C)c(O)c(CN(C)C)cc12 | inconclusive: 56.5%
72 | Cc1nc2ccc(NC(=O)N(C(C)C)C(C)C)cc2s1 | inactive: 10.4%
73 | CC1=NN(c2ccc(C)cc2)C(=O)/C1=C/c1ccc(-c2cc([N+](=O)[O-])ccc2O)o1 | inactive: 44.4%
74 | CCN(CC)S(=O)(=O)c1ccc(N2Cc3ccccc3C2=N)cc1 | inconclusive: 56.8%
75 | Cc1nn2cc(-c3ccccc3)nc2[nH]c1=O | inconclusive: 63.2%
76 | COCCn1c(SCC(=O)Nc2ccc(F)cc2)nc2c([nH]c3ccccc32)c1=O | inconclusive: 59.9%
77 | Cc1cc(C)cc(NC(=S)NCc2cccnc2)c1 | inactive: -3.3%
78 | COc1ccc(OCC(=O)NNC(=O)C(=O)Nc2cc(OC)ccc2OC)cc1 | inconclusive: 58.2%
79 | COC(=O)c1ccc(CSc2nnc(-c3ccncc3)o2)o1 | inconclusive: 64.4%
80 | CCN1CCN(C(=O)c2cc(-c3cccnc3)nc3ccc(Br)cc23)CC1 | inconclusive: 72.9%
81 | O=C1C(Cl)=C(NC(=O)c2ccccc2)C(=O)C(Cl)=C1NC(=O)c1ccccc1 | active: 81.8%
82 | O=C(Nc1ccccc1)c1nn(-c2cccc(C(F)(F)F)c2)ccc1=O | inconclusive: 94.4%
83 | CC(=O)Nc1ccc(-c2cn3cccnc3n2)cc1 | inconclusive: 51.7%
84 | O=C(Cn1cnc2c(nnn2Cc2ccc(F)cc2)c1=O)NCc1ccccc1 | inconclusive: 57.3%
85 | COc1ccc(OC)c(C(=O)NC(CC(N)=O)c2ccc(NCC3CC3)c([N+](=O)[O-])c2)c1 (configuration not stated) | inactive: -4.2%
86 | CCCc1cc(=O)oc2cc(C)cc(O)c12 | inconclusive: 51.3%
87 | CSc1ncccc1C(=O)NCCc1ccccc1F | inconclusive: 55.7%
88 | Cc1c(Cl)cccc1NC(=S)N1CCN(c2ccccn2)CC1 | inconclusive: 50.6%
89 | Cc1ccc(C(=O)CCCn2nnc(-c3cccnc3)n2)cc1C | inconclusive: 57.7%
90 | COc1cc(C2CC(=O)N3CN(Cc4ccco4)CSC3=C2C#N)ccc1OCc1ccccc1 (configuration not stated) | active: 84.8%
91 | CCC1CN(C)C2Cc3c([nH]c4ccccc34)C(=O)CC1C2C(=O)OC (configuration not stated) | inconclusive: 66.5%
92 | Cc1ccc(C)c(NC(=S)NCCSc2ccc(Cl)cc2)c1 | inconclusive: 82%

Pulled one by one from the list above:
Row | Compound | inhibition
84 | O=C(Cn1cnc2c(nnn2Cc2ccc(F)cc2)c1=O)NCc1ccccc1 | inconclusive: 57.3%
77 | Cc1cc(C)cc(NC(=S)NCc2cccnc2)c1 | inactive: -3.3%
89 | Cc1ccc(C(=O)CCCn2nnc(-c3cccnc3)n2)cc1C | inconclusive: 57.7%
92 | Cc1ccc(C)c(NC(=S)NCCSc2ccc(Cl)cc2)c1 | inconclusive: 82%
